Data source: PubChem BioAssay AID1259308 (NCATS, 2017)
Test: 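Knock-downs that increase output of a recombinant reporter protein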 (primary screen). System: human HEK293 embryonic kidney cells stably expressing firefly luciferase (HEK-CMV-Luc2-Hygro). Reagents: single siRNA against human genes, 0.8 pmol siRNA per well. Duration: 72 h. Detection: 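Luciferase light (ONE-Glo) measured on one replicate plate set and viability (CellTiter-Glo) on the other, scaled to a negative control siRNA, with robust z-scores and luciferase per cell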. Scale: total luciferase, z-score and total luciferase, % of control: higher = more reporter protein produced. Active means: 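An siRNA counts as active if its total luciferase robust z-score exceeds 3; genes with two or more such siRNAs out of three were retested with fresh siRNAs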. Meaning of the calls: active = raised luciferase; inactive = no rise.
The deposit covers about 59,000 reagents; shown is a part drawn at random. Of all reagents, about 1,510 (2.6%) were called active. 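Calls use total luciferase alone and ignore viability, so some active siRNAs may act by altering cell number.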 The numbers tell different reagents against one gene apart. Not all columns of the deposit are shown.

MFN1P1 (MFN1 pseudogene 1) #1
- total luciferase, z-score: 0.0936
- total luciferase, % of control: 83.7
- activity call: inactive

MFN1P1 (MFN1 pseudogene 1) #2
- total luciferase, z-score: 0.0699
- total luciferase, % of control: 83.3
- activity call: inactive

MFN1P1 (MFN1 pseudogene 1) #3
- total luciferase, z-score: -0.605
- total luciferase, % of control: 69.9
- activity call: inactive

THAP12 (THAP domain containing 12) #1
- total luciferase, z-score: 0.318
- total luciferase, % of control: 88.2
- activity call: inactive

THAP12 (THAP domain containing 12) #2
- total luciferase, z-score: -0.21
- total luciferase, % of control: 77.7
- activity call: inactive

THAP12 (THAP domain containing 12) #3
- total luciferase, z-score: -0.294
- total luciferase, % of control: 76
- activity call: inactive

STMN2 (stathmin 2) #1
- total luciferase, z-score: -0.014
- total luciferase, % of control: 81.6
- activity call: inactive

STMN2 (stathmin 2) #2
- total luciferase, z-score: 0.0495
- total luciferase, % of control: 82.9
- activity call: inactive

STMN2 (stathmin 2) #3
- total luciferase, z-score: 2.29
- total luciferase, % of control: 127
- activity call: inactive

SIRAL1 (SIR2 antiphage like 1) #1
- total luciferase, z-score: 1.11
- total luciferase, % of control: 104
- activity call: inactive

SIRAL1 (SIR2 antiphage like 1) #2
- total luciferase, z-score: 1.21
- total luciferase, % of control: 106
- activity call: inactive

SIRAL1 (SIR2 antiphage like 1) #3
- total luciferase, z-score: -0.713
- total luciferase, % of control: 67.7
- activity call: inactive
